Laboratory results taken from publication PMC11996887.
These are yes or no findings as the source states them, for the method shown. For part of these data: In cells and extracts the contact can be indirect. Some results given as binding are weak or reduced against the parent protein; the word gives no strength.

Columns and labels:
[1] = biological target: T1, Peptidoglycan recognition protein 2 (PGLYRP2), endogenous in human liver tissue (human (endogenous in liver tissue)) (UniProt Q96PD5); assay: co-IP; HBV+ or HBV- human liver tissue lysates, immunoprecipitated with anti-PGLYRP2 and agarose beads at 4 C overnight, blotted
T1 sequence: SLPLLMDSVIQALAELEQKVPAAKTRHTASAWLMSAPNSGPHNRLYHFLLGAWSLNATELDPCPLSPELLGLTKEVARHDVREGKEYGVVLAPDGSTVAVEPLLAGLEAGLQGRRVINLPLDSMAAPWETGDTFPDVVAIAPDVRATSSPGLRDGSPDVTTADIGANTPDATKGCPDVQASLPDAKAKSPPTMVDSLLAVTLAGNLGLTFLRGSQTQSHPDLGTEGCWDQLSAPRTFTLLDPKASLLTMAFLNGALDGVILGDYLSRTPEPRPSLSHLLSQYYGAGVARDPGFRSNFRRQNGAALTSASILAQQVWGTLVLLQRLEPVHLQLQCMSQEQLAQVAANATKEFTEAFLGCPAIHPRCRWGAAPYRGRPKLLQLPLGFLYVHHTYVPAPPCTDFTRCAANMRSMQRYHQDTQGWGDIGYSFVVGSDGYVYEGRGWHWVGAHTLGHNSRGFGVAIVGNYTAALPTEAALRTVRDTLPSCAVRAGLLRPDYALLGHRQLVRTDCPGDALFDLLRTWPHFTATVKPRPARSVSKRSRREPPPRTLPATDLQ

[2] = biological target: T1, Peptidoglycan recognition protein 2 (PGLYRP2), endogenous in human liver tissue (human (endogenous in liver tissue)); assay: proximity ligation; Duolink PLA on HBV+ and HBV- human liver tissue with mouse anti-HBc and rabbit anti-PGLYRP2 antibodies
[3] = biological target: T2, PGLYRP2, full-length expression construct (human) (UniProt Q96PD5); assay: pull-down; culture supernatants of HEK293 cells coexpressing HBc and PGLYRP2; FLAG pull-down and ultracentrifugation, elution with 3xFLAG peptides, Western blot
T2 sequence: T1 sequence

[4] = biological target: T2, PGLYRP2, full-length expression construct (human); assay: pull-down; FLAG pull-down of HBV proteins with PGLYRP2 (full-length and truncated constructs); details only in Supplemental Figure 4B-D
[5] = biological target: T2, PGLYRP2, full-length expression construct (human); assay: co-IP; PGLYRP2 construct cotransfected with Con vector, HBc WT, HBc-C61G or HBc-Y132A into HEK293 cells; lysates after 48 hours, co-IP with anti-FLAG antibody, blotted
[6] = biological target: T2, PGLYRP2, full-length expression construct (human); assay: SEC; size-exclusion chromatography of the FLAG-eluted extracellular PGLYRP2/HBV capsid complex (formed in coexpressing HEK293 cells) against HBV capsid alone; fractions of the peaks analysed

Measured: binding

HBV core protein (HBc) / HBV capsid in HBV-infected human liver tissue (from UniProt P03146 1-183)
binds: [1] | [2]

HBV core protein, wild type (WT HBc) (from UniProt P03146 1-183)
binds: [3] | [4] | [5] | [6]
